Assay results published in paper PMC5269733.
No constants are given. Whether binding was seen depends on the method and setting. For part of these data: In cells and extracts the contact can be indirect. Some binding calls cover weakened binding; strength is not graded here. For part of these data: Where a sequence is shown, tags or fusion partners need not be part of it.

Chains of the proteins cited; added tags and fusions are not shown.
UniProt O00571: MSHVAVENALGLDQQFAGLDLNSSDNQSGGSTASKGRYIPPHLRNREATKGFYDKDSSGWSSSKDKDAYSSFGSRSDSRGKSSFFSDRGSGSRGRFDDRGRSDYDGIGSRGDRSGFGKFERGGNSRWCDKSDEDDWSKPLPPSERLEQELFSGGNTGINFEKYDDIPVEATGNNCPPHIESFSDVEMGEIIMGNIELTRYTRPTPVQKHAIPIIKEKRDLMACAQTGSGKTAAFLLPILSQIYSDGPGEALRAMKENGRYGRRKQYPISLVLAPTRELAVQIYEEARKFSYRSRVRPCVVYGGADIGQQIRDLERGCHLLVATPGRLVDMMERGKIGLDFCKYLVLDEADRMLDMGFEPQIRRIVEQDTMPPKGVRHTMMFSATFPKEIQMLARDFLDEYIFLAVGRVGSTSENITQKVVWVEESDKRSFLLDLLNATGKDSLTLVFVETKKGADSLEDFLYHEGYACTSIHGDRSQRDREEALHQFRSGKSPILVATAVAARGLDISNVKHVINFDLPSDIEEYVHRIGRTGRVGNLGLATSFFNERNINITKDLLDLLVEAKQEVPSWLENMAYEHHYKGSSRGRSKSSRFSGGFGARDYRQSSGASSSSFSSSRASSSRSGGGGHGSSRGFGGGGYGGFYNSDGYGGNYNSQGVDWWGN

T1: Flag-tagged SHP (UniProt Q15466)
T1 sequence: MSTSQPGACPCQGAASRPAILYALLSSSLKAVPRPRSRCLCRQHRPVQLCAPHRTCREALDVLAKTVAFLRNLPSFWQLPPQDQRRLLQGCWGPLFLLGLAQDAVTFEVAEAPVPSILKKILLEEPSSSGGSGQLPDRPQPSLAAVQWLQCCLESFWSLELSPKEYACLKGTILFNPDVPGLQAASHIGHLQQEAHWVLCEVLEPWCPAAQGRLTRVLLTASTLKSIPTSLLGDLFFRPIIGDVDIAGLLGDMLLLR

T2: Flag-tagged HNF4 (UniProt P41235)
T2 sequence: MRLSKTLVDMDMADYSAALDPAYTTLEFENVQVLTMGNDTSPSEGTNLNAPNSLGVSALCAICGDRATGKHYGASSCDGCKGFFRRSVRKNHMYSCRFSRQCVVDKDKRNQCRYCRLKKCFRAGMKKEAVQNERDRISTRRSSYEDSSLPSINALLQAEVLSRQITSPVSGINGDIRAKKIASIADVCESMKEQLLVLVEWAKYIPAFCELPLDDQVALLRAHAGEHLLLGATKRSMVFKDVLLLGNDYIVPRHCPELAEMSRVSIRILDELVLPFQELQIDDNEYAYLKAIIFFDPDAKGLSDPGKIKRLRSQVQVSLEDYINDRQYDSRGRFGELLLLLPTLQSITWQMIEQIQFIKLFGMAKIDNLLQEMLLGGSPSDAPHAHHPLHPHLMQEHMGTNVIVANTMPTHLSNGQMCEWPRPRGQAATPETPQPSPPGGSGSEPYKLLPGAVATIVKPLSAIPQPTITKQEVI


Experiments:
[1] = molecular target: T1, Flag-tagged SHP; assay: co-IP; total cell lysates (2 mg) of HuH7 cells co-expressing Flag-HNF4 and HA-SHP, or Flag-SHP and HA-HNF4, on anti-Flag M2 agarose; start of the competition assay
[2] = molecular target: Flag-tagged DDX3 (UniProt O00571); assay: co-IP; RNase A-treated nuclear extracts (200 ug) of HuH7 cells co-expressing Flag-DDX3 with HA-SHP or HA-HNF4; anti-HA agarose or anti-Flag M2 resin; 20 mM Tris-HCl pH 7.5, 150 mM NaCl, 10% glycerol, 1% Triton X-100, 4 C overnight
[3] = molecular target: GST-tagged full length DDX3 (UniProt O00571); assay: pull-down; GST or GST-DDX3 (3 ug) prebound to glutathione Sepharose, incubated with nuclear extracts (200 ug) of HuH7 or HepG2 cells expressing HA-SHP or HA-HNF4, with or without 100 ug/ml RNase A, 4 C, 5 hr; washed with PBS, 0.5% NP40; anti-HA blot; only the target purified
[4] = molecular target: DDX3 (yeast two-hybrid screening) (UniProt O00571); assay: two-hybrid; yeast two-hybrid screening with DDX3, unpublished data
[5] = molecular target: T2, Flag-tagged HNF4; assay: co-IP; total cell lysates (2 mg) of HuH7 cells co-expressing Flag-HNF4 and HA-SHP, or Flag-SHP and HA-HNF4, on anti-Flag M2 agarose; start of the competition assay

Row | binding [1] | binding [2] | binding [3] | binding [4] | binding [5] | Binder
1 | binds | binds | binds |  |  | HA-tagged HNF4 (hepatocyte nuclear factor 4) (protein, UniProt P41235 1-474) MRLSKTLVDMDMADYSAALDPAYTTLEFENVQVLTMGNDTSPSEGTNLNAPNSLGVSALCAICGDRATGKHYGASSCDGCKGFFRRSVRKNHMYSCRFSRQCVVDKDKRNQCRYCRLKKCFRAGMKKEAVQNERDRISTRRSSYEDSSLPSINALLQAEVLSRQITSPVSGINGDIRAKKIASIADVCESMKEQLLVLVEWAKYIPAFCELPLDDQVALLRAHAGEHLLLGATKRSMVFKDVLLLGNDYIVPRHCPELAEMSRVSIRILDELVLPFQELQIDDNEYAYLKAIIFFDPDAKGLSDPGKIKRLRSQVQVSLEDYINDRQYDSRGRFGELLLLLPTLQSITWQMIEQIQFIKLFGMAKIDNLLQEMLLGGSPSDAPHAHHPLHPHLMQEHMGTNVIVANTMPTHLSNGQMCEWPRPRGQAATPETPQPSPPGGSGSEPYKLLPGAVATIVKPLSAIPQPTITKQEVI
2 |  |  |  | binds |  | SHP (yeast two-hybrid screening) (protein, UniProt Q15466 1-257) MSTSQPGACPCQGAASRPAILYALLSSSLKAVPRPRSRCLCRQHRPVQLCAPHRTCREALDVLAKTVAFLRNLPSFWQLPPQDQRRLLQGCWGPLFLLGLAQDAVTFEVAEAPVPSILKKILLEEPSSSGGSGQLPDRPQPSLAAVQWLQCCLESFWSLELSPKEYACLKGTILFNPDVPGLQAASHIGHLQQEAHWVLCEVLEPWCPAAQGRLTRVLLTASTLKSIPTSLLGDLFFRPIIGDVDIAGLLGDMLLLR
3 |  |  | binds |  | binds | HA-tagged SHP (small heterodimer partner) (protein, UniProt Q15466 1-257) MSTSQPGACPCQGAASRPAILYALLSSSLKAVPRPRSRCLCRQHRPVQLCAPHRTCREALDVLAKTVAFLRNLPSFWQLPPQDQRRLLQGCWGPLFLLGLAQDAVTFEVAEAPVPSILKKILLEEPSSSGGSGQLPDRPQPSLAAVQWLQCCLESFWSLELSPKEYACLKGTILFNPDVPGLQAASHIGHLQQEAHWVLCEVLEPWCPAAQGRLTRVLLTASTLKSIPTSLLGDLFFRPIIGDVDIAGLLGDMLLLR
